The target of this test is fatty acid synthase (D. melanogaster (endogenous in adult flies)). The experiment in a line: co-IP; FASN immunoprecipitated with guinea pig anti-FASN from abdomens of 5-day-old adult males; 10 mM Tris pH 7.4, 150 mM NaCl, 0.1% Triton X-100; normal guinea pig IgG as control; flies: w1118 control, dSTING deletion, rescue (dSTING deletion; GFP-dSTING), cg-GAL4/GFP-dSTING.

No constants are given. Whether binding was seen depends on the method and setting. Binding seen in cells or lysates may run through a third protein. A result given as binding can be weak or reduced; the word gives no strength. Sequences can lack the tags named with a protein.

B1: GFP-tagged Drosophila STING (protein, UniProt A0A0B4LFY9 1-343)
chain: MAIASNVVEAGNAVRAEKGRKYFYFRKMIGDYIDTSIRIVATVFLADLLLRLYRCVVEYGSNGRYYLPEDRLWIILRRSCTYNNRSIYLIVGFLLVAFFRISVTGNYRNVMPTTLFLFQMPLYWIWSFTDMDQSTLSYSHWIRDSHGLDYAAGMASNYFHGYLKLSLPERKDDGLKHRLAMYEDKNNVTFGIKRLVILIPDEMFVNGVLESHLLDKAEPLETQFINRAGVYRPFKHDVYRMNKKVNGRTYYFAVEGATPMISFFDATYSNLSGTWQMQELKREIWIKFYKHLKELITTWPETRDLVELIIYNSHDSKGNLVDVGELLVAHMQNKTKTIDEISN
Consider B1, for which the binding entry is given as “binds”.

These data come from article PMC8443252.
